# In US20240390316A1, “USE OF DOXEPIN HYDROCHLORIDE IN PREPARATION OF ANTIVIRAL DRUG” (SHENZHEN TECHNOLOGY UNIVERSITY, priority 2022, published 2024):
# Structures can show the parent of a compound that is named as a salt.
# Key:
# CVB1 = test: microbe, parasite or virus in culture
# Protocol: 72 hours later, the degree of a cytopathic effect was detected by an AlamarBlue fluorescent reagent, and an inhibition rate was calculated by using a formula.
# CVB2 [1] = test: microbe, parasite or virus in culture; conditions: Enterovirus B, CVB2, Vero, read-out: IC50 (50% inhibitory concentration)
# CVB2 [2] = tested on: CVB2
# CVB3 [3] = tested on: CVB3
# CVB3 [4] = test: microbe, parasite or virus in culture; conditions: Enterovirus B, CVB3, Vero, read-out: IC50 (50% inhibitory concentration)
compound,measurement,setting,value
CN(C)CCC=C1c2ccccc2COc2ccccc21 [doxepin hydrochloride],"SI (selectivity index, ratio of CC50 to IC50)",CVB1; CVB1,8.96
same,IC50,"CVB1; Enterovirus B, CVB1, Vero, read-out: IC50 (50% inhibitory concentration)",10.1 ± 0.85 µM
same,IC50,CVB2 [1],19.8 ± 8.78 µM
same,"SI (selectivity index, ratio of CC50 to IC50)",CVB2 [2],4.57
same,"SI (selectivity index, ratio of CC50 to IC50)",CVB3 [3],4.46
same,IC50,CVB3 [4],20.3 ± 5.7 µM
